The record followed here is patent US20040208887A1.

No constants are given. Whether binding was seen depends on the method and setting. A result given as binding can be weak or reduced; the word gives no strength.

The target of experiment [1] is recombinant soluble HCV E1 protein (hepatitis C virus). In words: ELISA, crude periplasmic Fab.
Experiment [2] has the same target. The experiment can be described thus: ELISA for E1 reactivity, second selection series. For orientation: In an ELISA, binding on a coated surface is turned into a signal by an enzyme label.

B1: Fab clone 6a:5 (Fab, V domains shown)
VH: EVQLLESGPGLVKPSQTLSLTCAISGDNVSRKSAAWNWIRQSPSRGLEWLGRTYHMSKWYSVYATSLKSRININVDTSRNQFALQLRSVTPEDTAVYYCAREGPEWAVGGTYGMDVWGQGTTVTVSS
VL: AELTQSPDTLSLSPGERATLSCRASQSVNNNYLAWYQQKPGQAPRLLIYGASSRATGIPDRFSGSGSETDFTLTISRLEPEDFAVYYCQQYDSSRTFGQGTKVEIK
For B1, the binding result in experiment [1] is “binds”.

B2: Fab clone 4:6 (Fab, V domains shown)
VH: VQLLEQSGAEVKKPGASVKVSCKASGYTFTKYYLHWVRQAPGQGLEWMGFINPSGGSTSSAQKFQGRISMTRDTSTTTVYMEVNSVTSEDTAVYYCARVGRLGVGATGAFDLWGQGTMVTVSS
VL: AELTQSPSSLSASVGDRVTITCQASQDINYSLNWYQQKPGKPPKLLIYYASHSDTGVPSRFSGGGSGTRFTLTIYSLQPEDIATYYCQHFDHVPRYTFGPGTKVDLK
As to B2, the binding result in experiment [2] and in experiment [1] was “binds” throughout.
